# According to PubChem BioAssay AID540276 (National Center for Advancing Translational Sciences (NCATS), 2011):
# Out of some 300,000 compounds screened, about 5,400 (1.8%) were called active. Inconclusive means that the source gave no clear call. Such entries were picked first, then a sample of the others. Calls follow the shape of the full dose curve; tested in HEK293 cells. A potency beside an inconclusive call is a rough fit, not a confirmed value.
# Assay: qHTS for inhibitors of binding or entry into cells for Marburg Virus
# Details: Marburg virus pseudotyped entry inhibition, cell reporter; activity change, negative = inhibition: at 37.8 µM (top of the series) unless noted
# % is scaled to controls: 0 for no effect and ±100 for the full control effect; potency is read from the fitted curve at half-maximal effect.
Compound,"activity change, negative = inhibition",Potency
CCOc1ccc(C(=O)Nc2ccc3oc(-c4cccnc4)nc3c2)cc1,inactive: 2.25% [at 46.1 µM],
Cc1cc(NC(=O)c2c(-c3ccccc3Cl)noc2C)no1,,"inconclusive: 0.0891 µM [inhibitor, full curve, poor fit]"
CC(Nc1nc2ccccc2n2cnnc12)c1ccccc1 (stereo unspecified),inactive: -10.9% [at 46.1 µM],
Cc1sc(NC(=O)Cc2ccc3c(c2)OCO3)nc1-c1ccc2c(c1)CCN2C(=O)c1ccc(F)cc1,,"inconclusive: 0.0146 µM [inhibitor, full curve, poor fit]"
FC(F)(F)c1ccc(N2CCN(c3ncnc4c3nnn4Cc3ccccc3)CC2)nc1,inactive: -29.4%,
COc1ccc(S(=O)(=O)Nc2cc3c4c(c2)CCN4C(=O)CC3)cc1C,inactive: -2.47% [at 46.1 µM],
N#Cc1ccsc1NC(=O)C1CCN(C(=O)c2ccc(Cl)cc2)CC1,,"inconclusive: 35.5 µM [inhibitor, single point]"
CC(C)c1c(O)cc(-c2ccncc2)n(-c2ccc(Cl)cc2)c1=O,,"inconclusive: 22.4 µM [activator, partial curve, poor fit]"
Cc1cccc(OCCSc2nc3ccc(NC(=O)COc4ccccc4)cc3s2)c1,inactive: -2.1% [at 46.1 µM],
Cc1ccccc1-c1nnc(-c2ccc(Cl)cc2)o1,,"inconclusive: 4.61 µM [activator, partial curve, poor fit]"
CCOC(=O)CCc1ccc(NC(=O)/C=C/c2ccc([N+](=O)[O-])o2)cc1,,"inconclusive: 7.08 µM [inhibitor, full curve, poor fit]"
CSc1nc(Oc2ccc3ccccc3c2)c2sccc2n1,,"inconclusive: 1.12 µM [inhibitor, full curve]"
CCCCCCCCCCCNC(=O)c1ccoc1C,,"inconclusive: 13 µM [inhibitor, partial curve, poor fit]"
NNC(=O)c1ccc(CSc2nc3ccccc3s2)cc1,inactive: 5.04% [at 46.1 µM],
COC(=O)c1c(NC(=O)Cn2nc(C(F)F)cc2C(F)F)sc(C)c1C,,"inconclusive: 15.8 µM [inhibitor, single point]"
NS(=O)(=O)c1ccc(CCN=Cc2ccccc2O)cc1,,"inconclusive: 0.447 µM [inhibitor, partial curve, poor fit]"
CN(/C=C/C(=O)C(F)(F)F)Cc1ccccc1,inactive: 5.26%,
CCC(=O)Nc1ccc(Nc2ccccc2)cc1,inactive: 6.23%,
COc1cccc(C(C)NC(=O)Nc2ccccc2Cl)c1 (stereo unspecified),inactive: -25.3%,
CC(C)CCC(C)N=Cc1c(O)n(Cc2ccccc2)c(=O)c2ccccc12 (stereo unspecified),,active: 12.6 µM
CCc1cccc(CC)c1NC(=O)c1cccc(NC(=O)c2ccccc2)c1,,"inconclusive: 6.51 µM [inhibitor, partial curve, poor fit]"
CN(C)S(=O)(=O)c1cc(C(=O)NCCCn2ccc3ccccc32)ccc1Cl,inactive: 12.2%,
CCOC(=O)c1ccc(N2C(=O)c3n[nH]c(C)c3C2c2ccc(O)cc2)cc1 (stereo unspecified),inactive: 4.17%,
Cc1nnc(SCC(=O)NNC(=O)c2ccc(Cl)cc2)s1,,"inconclusive: 1.26 µM [inhibitor, partial curve, poor fit]"

Compound,"activity change, negative = inhibition",Potency
CCc1nn(CC(=O)N2CCN(c3cccc(C(F)(F)F)c3)CC2)c(=O)c2cccn12,,"inconclusive: 2.82 µM [inhibitor, full curve, poor fit]"
O=C(NC1=NC2CCCCC2N1)c1ccccc1 (stereo unspecified),,"inconclusive: 7.94 µM [inhibitor, partial curve, poor fit]"
CC(=O)N1CCc2cc(S(=O)(=O)NC(Cc3ccccc3)C(=O)Nc3ccc(Cl)cc3)ccc21 (stereo unspecified),,"inconclusive: 0.562 µM [inhibitor, full curve, poor fit]"
COc1ccc(C2CC(c3c(O)cc(C)oc3=O)=NCCS2)c(OC)c1 (stereo unspecified),,"inconclusive: 1.26 µM [inhibitor, single point]"
Cc1cc(C)c(OCC(=O)N(Cc2cccc(F)c2)Cc2ccco2)c(C)c1,,"inconclusive: 35.5 µM [inhibitor, single point]"
Cc1ccc(N(C(=O)CCl)C(C(=O)NC2CCCCC2)c2cccnc2)cc1C (stereo unspecified),,"inconclusive: 3.98 µM [inhibitor, partial curve, poor fit]"
COC(=O)c1sccc1NC(=O)Nc1ccccc1C,inactive: 8.06% [at 46.1 µM],
CN(C)c1ccc(C(=O)/C=C/c2ccco2)cc1,,"inconclusive: 23.1 µM [inhibitor, single point]"
Cc1csc2c(NCCCN3CCOCC3)ncnc12,inactive: -0.109%,
COc1ccc(OCC(=O)NNC(=O)c2c(-c3ccccc3Cl)noc2C)cc1,,"inconclusive: 20 µM [activator, single point]"
CCCC(=O)Nc1ccc(NC(=O)c2ccco2)c(OC)c1,,"inconclusive: 2.06 µM [activator, partial curve]"
COc1ccc(NC(=O)N2CCCCCC2)cc1,,"inconclusive: 31.6 µM [activator, single point]"
OCCNc1c2ccccc2nc2ccccc12,,"inconclusive: 7.08 µM [inhibitor, partial curve, poor fit]"
Nc1ccccc1SCc1ccccc1,inactive: -4.63%,
O=C(Cn1cc(C(F)(F)F)ccc1=O)N/N=C/c1ccc(Cl)c(Cl)c1,,"inconclusive: 5.62 µM [inhibitor, single point]"
COc1ccc(CNc2nc(SCC(=O)NCc3ccco3)nc3ccccc23)cc1,,"inconclusive: 29.1 µM [inhibitor, single point]"
O=C(CSc1nnc(-c2ccc(C(F)(F)F)cn2)o1)Nc1cccc(Cl)c1,,"inconclusive: 3.16 µM [activator, single point]"
COCCNCC(=O)Nc1ccc(C)c(S(=O)(=O)N2CCCCC2)c1,inactive: 0% [at 14.2 µM],
COc1ccc(Oc2nc(-c3ccccn3)ncc2OC)cc1,inactive: 1.8% [at 46.1 µM],
CN(CC(=O)Nc1ccc(S(=O)(=O)N2CCCC2)cc1)CC(=O)Nc1cccc(F)c1,,"inconclusive: 12.6 µM [inhibitor, single point]"
Cc1ccc(Cl)cc1Nc1nc(N2CCOCC2)nc(N2CCOCC2)n1,,"inconclusive: 20 µM [inhibitor, partial curve, poor fit]"
CN1CCN(c2ccc(NC(=O)CSc3nnnn3-c3ccccc3F)cc2)CC1,,"inconclusive: 20 µM [inhibitor, partial curve, poor fit]"
COC(=O)c1cccc(NS(=O)(=O)c2cccs2)c1C,inactive: -7.61%,
Cc1cc(C)n2nc(-c3sccc3-n3c(C)ccc3C)cc2n1,inactive: -21%,

# Individual results from the list:
# Entry of `CCCCCCCCCCCNC(=O)c1ccoc1C` under Potency: inconclusive: 13 µM [inhibitor, partial curve, poor fit]
# Entry of `COc1ccc(S(=O)(=O)Nc2cc3c4c(c2)CCN4C(=O)CC3)cc1C` under activity change, negative = inhibition: inactive: -2.47% [at 46.1 µM]
# Entry of `CCC(=O)Nc1ccc(Nc2ccccc2)cc1` under activity change, negative = inhibition: inactive: 6.23%
# Entry of `CN(/C=C/C(=O)C(F)(F)F)Cc1ccccc1` under activity change, negative = inhibition: inactive: 5.26%
# Entry of `Cc1cccc(OCCSc2nc3ccc(NC(=O)COc4ccccc4)cc3s2)c1` under activity change, negative = inhibition: inactive: -2.1% [at 46.1 µM]
# Entry of `CCOC(=O)c1ccc(N2C(=O)c3n[nH]c(C)c3C2c2ccc(O)cc2)cc1` (stereo unspecified) under activity change, negative = inhibition: inactive: 4.17%

# (listing goes on)

Compound,"activity change, negative = inhibition",Potency
O=C(Cn1nnc(-c2cccs2)n1)N1c2ccccc2Sc2ccc(C(F)(F)F)cc21,,"inconclusive: 5.62 µM [inhibitor, partial curve, poor fit]"
Cc1ccccc1NC(=O)C1CCN(S(=O)(=O)c2ccc3c(c2)NC(=O)C(C)S3)CC1 (stereo unspecified),inactive: -4.99% [at 46.1 µM],
CCOc1ccc2nc(SCC(=O)Nc3ccc4[nH]c(=O)[nH]c4c3)[nH]c2c1,,"inconclusive: 1 µM [activator, single point]"
O=C(COC(=O)C1C2CC3OC(=O)C1C3C2)Nc1ccc(Br)cc1 (stereo unspecified),,"inconclusive: 11.2 µM [activator, partial curve, poor fit]"
CCc1cccc(OCC(=O)Nc2ccccc2N2CCCC2)c1,inactive: -12%,
COC(=O)c1oc2ccccc2c1N,,"inconclusive: 17.8 µM [activator, single point]"
CCOCCCn1c(=S)[nH]c2cc(C(=O)NCC(OC)OC)ccc2c1=O,inactive: 5.81% [at 46.1 µM],
COc1ccc(CNc2oc(-c3ccc(COc4ccc(OC)cc4)o3)nc2C#N)cc1,,"inconclusive: 35.5 µM [inhibitor, single point]"
CC(C)OC(=O)n1c(=S)oc2ccccc21,,"inconclusive: 2.06 µM [inhibitor, partial curve]"
Fc1ccc(F)c(C2=NNC(=Nc3ccccc3F)SC2)c1,,"inconclusive: 15.8 µM [inhibitor, single point]"
COc1cc(C(=O)COC(=O)C2CC2(Cl)Cl)cc(OC)c1OC (stereo unspecified),,"inconclusive: 35.5 µM [activator, single point]"
COc1ccc(/C=C(\C#N)C(=O)C(C)(C)n2cncn2)cc1,inactive: 7.39% [at 46.1 µM],
N#Cc1ccc2ccn(CC(=O)NCc3ccccc3)c2c1,,"inconclusive: 7.3 µM [inhibitor, partial curve]"
Cn1c(=O)c2sccc2n(Cc2cccc(Br)c2)c1=O,,"inconclusive: 10 µM [inhibitor, partial curve, poor fit]"
COCCN(C(=O)COC(=O)CCCOc1ccc(OC)cc1)c1c(N)n(Cc2ccccc2)c(=O)[nH]c1=O,inactive: -1.3%,
COCCNC(=O)CN(C(=O)c1ccc(N2CCCC2)nc1)c1ccccc1,,"inconclusive: 3.55 µM [activator, full curve, poor fit]"
O=C(NC1CCCC1)C1CCN(C(=O)c2ccc(-c3ccccc3)cc2)CC1,inactive: 20.5% [at 46.1 µM],
O=C(NCc1cccc(C(F)(F)F)c1)C1CCC(=O)N(C2CCCCCC2)C1 (stereo unspecified),inactive: -1.77% [at 46.1 µM],
CCCc1cc(C(=O)Nc2nnc(C)s2)cs1,,"inconclusive: 0.206 µM [activator, single point]"
COc1ccc(-c2noc(C3CCCN(C(=O)c4cccc(F)c4)C3)n2)cc1 (stereo unspecified),,"inconclusive: 12.6 µM [inhibitor, partial curve, poor fit]"
CCN1C(=O)C(Cc2nc3ccccc3c(=O)n2-c2ccccc2)c2cc(Br)ccc21 (stereo unspecified),,"inconclusive: 2.82 µM [inhibitor, full curve]"
O[C@@H]1CN(CC2CCCCC2)[C@@H](c2ccc(Cl)cc2)C[C@@H]1n1cc(C2CC2)nn1,,"inconclusive: 0.887 µM [inhibitor, full curve, poor fit]"
c1ccc(-c2ccc(-c3ccncn3)cc2)cc1,,"inconclusive: 35.5 µM [activator, single point]"
